From publication PMC11349225 come the findings set out here.

Assay [1] concerns the target FLAG-tagged AjMyc-f3 (300-407 aa) (Apostichopus japonicus). The assay is described as follows: co-IP; HEK 293T cells transfected with FLAG-tagged AjMyc and EGFP-tagged AjOTUB1 constructs; IP with anti-FLAG and blot with anti-GFP, and IP with anti-GFP and blot with anti-FLAG; pre-immune serum as control; also in si-circ-1- or siNC-transfected cells.
Assay [2] has as its target FLAG-tagged AjMyc-f1 (full length ORF, 1-431 aa) (Apostichopus japonicus). The description is as above.
For assay [3], the target named is A. japonicus Myc (AjMyc), endogenous (Apostichopus japonicus (endogenous in coelomocytes)). The assay is described as follows: co-IP; endogenous proteins in the nuclei of coelomocytes of sea cucumbers challenged with V. splendidus; western blotting; Histone H3 as internal reference. In general terms: A western blot detects proteins with antibodies after separation by electrophoresis.

Assay [4] deals with FLAG-tagged AjMyc-f1 (full length ORF, 1-431 aa) (Apostichopus japonicus). The assay is described as follows: pull-down; rAjMyc-f1 (1 μg) immobilised on FLAG resin; rAjOTUB1-f1 or rAjOTUB1-f1-mut (3 μg) added mixed with circ-FGL1-f1 or circ-FGL1-f1-mut (3 μg), overnight at 4°C; eluted with FLAG elution buffer; blot with anti-GFP; both purified.

Results are given in words; binding and its absence hold for the method and conditions named. Binding calls can cover weak binding; strength is not graded here. For part of these data: Where a sequence is shown, tags or fusion partners need not be part of it. For part of these data: In cells and extracts the contact can be indirect.

B1: EGFP-tagged AjOTUB1-f2 (110-210 aa) (domain or fragment, UniProt A0AB39JB66 110-210)
chain: EIIEKSKDTLISLGCPSFTLMDFHDTFMEVVNQLEEKPSLSELVATYCDQGMSDYLVVYLRLLTSLELQKEAEFYQNFVEGNRTVKEFCSQEVEPMYKESD
In the case of B1, the binding entry in assay [1] and in assay [2] was “binds” each time.

B2: A. japonicus OTU domain-containing ubiquitin aldehyde-binding protein 1 (AjOTUB1), endogenous (enzyme, UniProt A0AB39JB66 1-266)
chain: MAENPDNKIDEEIERLTGMVRDEAILAQQDRIQKEVEDSNALVSERLPLLILKEEYQSDPIYSKKIEDMNASFPYIRKTRGDGNCFFRAFGFAYMEKLLSDKAELHRFKEIIEKSKDTLISLGCPSFTLMDFHDTFMEVVNQLEEKPSLSELVATYCDQGMSDYLVVYLRLLTSLELQKEAEFYQNFVEGNRTVKEFCSQEVEPMYKESDHIHIIALTSYLGVGVRVVYLDRGENQKVNHHDFPEGMPPQIALLYRPGHYDVLYGD
Take B2: in assay [3], the binding entry was “binds”.

B3: EGFP-tagged AjOTUB1-f1 (full-length ORF, 1-266 aa) (enzyme, UniProt A0AB39JB66 1-266)
chain: B2 chain
With B3, the binding entry in assay [1], in assay [2] and in assay [4] was “binds” each time.
